PubChem BioAssay AID1259254 – NCATS, 2017

- Purpose: 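Gene knock-downs that lead to re-replication, shown by excess G2 DNA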 (primary screen)
- System: human HCT116 colorectal cancer cells
- Reagent: single siRNA against human genes
- Timing: 3 days
- Detection: 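Imaged Hoechst DNA stain sorts each cell into a cycle phase by DNA amount; per plate, G2 fraction set to 0% for non-targeting and 100% for GMNN siRNA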
- Scale: G2 robust z-score: higher = more G2 cells, more excess DNA replication
- Rule for the call: 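An siRNA counts as active if its G2 robust z-score lies at least 5 MADs above the screen median; here such calls match roughly 38% of GMNN control or more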
Shown is a random part of about 59,000 reagents tested. About 1,550 of all reagents (2.6%) count as active. 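G2 share is only a proxy for re-replication; each gene was hit by three separate siRNAs, and active genes were retested.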 The numbers tell different reagents against one gene apart. Further read-outs or replicates are left out here. Not given: the amount of reagent.

TBC1D22A-AS1 (GeneID 642757) #1: G2 robust z-score = 0.35; activity call = inactive
TBC1D22A-AS1 (GeneID 642757) #2: G2 robust z-score = -0.283; activity call = inactive
TBC1D22A-AS1 (GeneID 642757) #3: G2 robust z-score = 0.932; activity call = inactive
L1CAM (GeneID 3897) #1: G2 robust z-score = 1.2; activity call = inactive
L1CAM (GeneID 3897) #2: G2 robust z-score = 0.903; activity call = inactive
L1CAM (GeneID 3897) #3: G2 robust z-score = -0.393; activity call = inactive
IL3RA (GeneID 3563) #1: G2 robust z-score = 2.26; activity call = inactive
IL3RA (GeneID 3563) #2: G2 robust z-score = 2.97; activity call = inactive
IL3RA (GeneID 3563) #3: G2 robust z-score = 0.051; activity call = inactive
RPS4XP16 (GeneID 220433) #1: G2 robust z-score = 3.49; activity call = inactive
RPS4XP16 (GeneID 220433) #2: G2 robust z-score = 0.995; activity call = inactive
RPS4XP16 (GeneID 220433) #3: G2 robust z-score = 1.03; activity call = inactive
IQCF6 (GeneID 440956) #1: G2 robust z-score = 0.895; activity call = inactive
IQCF6 (GeneID 440956) #2: G2 robust z-score = -0.989; activity call = inactive
IQCF6 (GeneID 440956) #3: G2 robust z-score = 0.0404; activity call = inactive
SBSPON (GeneID 157869) #1: G2 robust z-score = -0.423; activity call = inactive
SBSPON (GeneID 157869) #2: G2 robust z-score = -0.253; activity call = inactive
SBSPON (GeneID 157869) #3: G2 robust z-score = 1.8; activity call = inactive

2 entries already listed, ordered by “G2 robust z-score”, highest first.
IQCF6 (GeneID 440956) #3: G2 robust z-score = 0.0404; activity call = inactive
SBSPON (GeneID 157869) #1: G2 robust z-score = -0.423; activity call = inactive

More results:
CLEC2L (GeneID 154790) #1: G2 robust z-score = -0.776; activity call = inactive
CLEC2L (GeneID 154790) #2: G2 robust z-score = -0.266; activity call = inactive
CLEC2L (GeneID 154790) #3: G2 robust z-score = -0.191; activity call = inactive
MS4A2 (GeneID 2206) #1: G2 robust z-score = 1.59; activity call = inactive
MS4A2 (GeneID 2206) #2: G2 robust z-score = -0.119; activity call = inactive
MS4A2 (GeneID 2206) #3: G2 robust z-score = -0.993; activity call = inactive
OSCP1 (GeneID 127700) #1: G2 robust z-score = -0.702; activity call = inactive
OSCP1 (GeneID 127700) #2: G2 robust z-score = -0.544; activity call = inactive
OSCP1 (GeneID 127700) #3: G2 robust z-score = 3.58; activity call = inactive
NYAP2 (GeneID 57624) #1: G2 robust z-score = -0.698; activity call = inactive
NYAP2 (GeneID 57624) #2: G2 robust z-score = 1.08; activity call = inactive
NYAP2 (GeneID 57624) #3: G2 robust z-score = -0.681; activity call = inactive
